Measured values as given in publication PMC4659569.
Results are given in words; binding and its absence hold for the method and conditions named. In cells and extracts the contact can be indirect. Some binding calls cover weakened binding; strength is not graded here. Tags and fused reporters may be left off the sequences shown.

Target: T1, Spo73-Envy (S. cerevisiae) (UniProt P40031)
T1 sequence: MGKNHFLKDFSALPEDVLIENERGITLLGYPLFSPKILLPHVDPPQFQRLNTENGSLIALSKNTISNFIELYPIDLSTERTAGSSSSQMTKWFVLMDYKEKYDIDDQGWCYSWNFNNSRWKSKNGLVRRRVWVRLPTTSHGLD
Test: co-IP; lysates of sporulated yeast cells in IP buffer (150 mM KCl, 1 mM EDTA, 50 mM HEPES pH 7.6, 1 mM DTT, 0.5% Nonidet P-40); Spo73-Envy precipitated with GFP-Trap A beads, 2 hours at 4°C; Spo71-myc detected with anti-myc blot

binding: binds
B1: Spo71-myc (protein, UniProt Q03868 1-1245)
chain: MDSIVNVVEDDVKYAQRVTSFSSPQNANVKVFTIPRHSFTAFRLSYVSPTELSACSQVTLLGGIPKQWYADQNNQVWKLLTKISLRKVRKQSDMLRRYGYGTIYKKRVGKIPTALYLRKHFTWSYEDNTSIHNGHRLKEAEMEMKRTRSSPVQKSEYKLSLPRRCRSSSDQNFMRQELLKEKKSELSRNNSLPLIDTAQAVDIHPVLHEEDQENTNKRNKSLLSNLKRKDLGESKSISRKDYSHFDRIPSPSSARSVGETDFNYNREPSEDTLRYPDSIIEVTNRTSPAPNSILSRSGQFVNSNDLSDGFSTSNTINNVGLNANEKIFFNALQSMEKENLMLWKTSQKYGTYLDERRKSADAFQKRERGSCVDIGKLHSSHLPFINILPPWPTELTEEERIIHDRLASKHSHHIRKHVHNARNKTSCKIKDSVGTFLGMTNSLTNKATVKKRTGQILKKEKMLVMVKEAIQNKVPLPNFSENECFDTRVSERWKEYIVIARSTGRFDPPILLQFYRHRHIPEIEDISSIATKYHRNPLDFFLSRNCIVKFYSSLDKTISIQKPDKRLGGFIDESIEKKDELKHYSPIKIFILRCSSIRSSGRWYKFLLESLDRQLFTPAINLKIPLTEISIKINLNEIIFQKLIDLGKQEKDRLKICFLQRGYKIFQHPILRYFTVAILEKLKLAHYDYLIRKWDTENPVLGCALKRYDRLEWIPCDEDSLVTGIFAFCQSHLIQYRPIANRLRETKSLEGKCLKEPTPIEGFLIRLTDKYGSARTNFGKYSISTAYFFTCENLLFSMKAYRANPPLPIDSMIDDTSTEIEKEEIWKQWKKIPEVYEQQPYPLDTNDHIEWMNCQTTQSEYDSRDFYAFHCFHRRIDQILKTDNVIDLTEVKDIYQGTRTDYEADKIKYGVYKEASEIFWHRNYEIDDVSRSVINIETSNGLLLKLLATSATVAEEWVIKLKQMISYWKNKQREDTERLLKIRRSNAGLLMLNGEEETKIGENTLRWIVEHGRADEQTFNANGISLSRPLIQKGPLYQKPHKHSVFSKYYVVLISGFIVLFHCFHRSTTGFAKEVLEYAHYVTIPIDDCYLYSGTTTELDLLQRDRTFDEINYGSHALPRVYGDGWRSVEDESSRCFTLWFGTRRALSSNRLQKKGNEKQYTQDYGRQDNNIDPPSAPEADLNNSNVPSNTDKIHFTKKLGVSGKSMVFMARSRQERDLWVMSIYYELERLRRTASTSNSRNQTM
